# Measurements: the supplement of paper PMC8728848
# The list shows a part of the results.
# Assays:
# Assay in all cases: glycan array binding signal (z-score within array); higher = stronger binding
# Settings in all cases: glycan notation: IUPAC condensed, linker removed
# [1] = target: Neu5Ac(a2-3)Gal(b1-4)GlcNAc(b1-6)GalNAc
# In short: (§1)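 The binding signal is a Z-score computed within each array. Data were drawn from 3228 arrays in the Consortium for Functional Glycomics database, restricted to those with a known protein sequence. Scores were averaged over arrays of the same protein sequence at different concentrations or buffers, and over linkers, and negative values can be taken as non-binding.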
# [2] = target: Neu5Ac(a2-3)Gal(b1-4)GlcNAc(b1-6)[Gal(b1-3)]GalNAc
# In short: as §1
# [3] = target: Neu5Ac(a2-3)Gal(b1-4)GlcNAc(b1-6)[Neu5Ac(a2-3)Gal(b1-3)]GalNAc
# In short: as §1
# [4] = target: Neu5Ac(a2-3)Gal(b1-4)GlcNAc6S
# In short: as §1
# [5] = target: Neu5Ac(a2-3)Gal(b1-4)[Fuc(a1-3)]GlcNAc
# In short: as §1
# [6] = target: Neu5Ac(a2-3)Gal(b1-4)[Fuc(a1-3)]GlcNAc(b1-2)Man
# In short: as §1
# [7] = target: Neu5Ac(a2-3)Gal(b1-4)[Fuc(a1-3)]GlcNAc(b1-3)Gal
# In short: as §1
# [8] = target: Neu5Ac(a2-3)Gal(b1-4)[Fuc(a1-3)]GlcNAc(b1-3)Gal(b1-4)GlcNAc
# In short: as §1
# [9] = target: Neu5Ac(a2-3)Gal(b1-4)[Fuc(a1-3)]GlcNAc(b1-3)Gal(b1-4)[Fuc(a1-3)]GlcNAc(b1-3)Gal(b1-4)[Fuc(a1-3)]GlcNAc
# In short: as §1
# [10] = target: Neu5Ac(a2-3)Gal(b1-4)[Fuc(a1-3)]GlcNAc(b1-3)GalNAc
# In short: as §1
# [11] = target: Neu5Ac(a2-3)Gal(b1-4)[Fuc(a1-3)]GlcNAc(b1-6)[Gal(b1-3)]GalNAc
# In short: as §1
# [12] = target: Neu5Ac(a2-3)Gal(b1-4)[Fuc(a1-3)]GlcNAc(b1-6)[Neu5Ac(a2-3)Gal(b1-3)]GalNAc
# In short: as §1
# [13] = target: Neu5Ac(a2-3)Gal(b1-4)[Fuc(a1-3)]GlcNAc6S
# In short: as §1
# [14] = target: Neu5Ac(a2-3)Gal6S(b1-4)GlcNAc
# In short: as §1
# [15] = target: Neu5Ac(a2-3)Gal6S(b1-4)[Fuc(a1-3)]GlcNAc
# In short: as §1
# [16] = target: Neu5Ac(a2-3)GalNAc
# In short: as §1
# [17] = target: Neu5Ac(a2-3)GalNAc(b1-4)GlcNAc
# In short: as §1
# [18] = target: Neu5Ac(a2-3)[GalNAc(b1-4)]Gal(b1-4)Glc
# In short: as §1
# [19] = target: Neu5Ac(a2-3)[GalNAc(b1-4)]Gal(b1-4)GlcNAc
# In short: as §1
# [20] = target: Neu5Ac(a2-3)[GalNAc(b1-4)]Gal(b1-4)GlcNAc(b1-3)GalNAc
# In short: as §1
# [21] = target: Neu5Ac(a2-3)[Neu5Ac(a2-6)]GalNAc
# In short: as §1
# [22] = target: Neu5Ac(a2-6)Gal
# In short: as §1
# [23] = target: Neu5Ac(a2-6)Gal(b1-3)GlcNAc(b1-3)[Gal(b1-4)GlcNAc(b1-6)]Gal(b1-4)Glc
# In short: as §1
# [24] = target: Neu5Ac(a2-6)Gal(b1-4)Glc
# In short: as §1
# [25] = target: Neu5Ac(a2-6)Gal(b1-4)GlcNAc
# In short: as §1
# [26] = target: Neu5Ac(a2-6)Gal(b1-4)GlcNAc(b1-2)Man
# In short: as §1
# [27] = target: Neu5Ac(a2-6)Gal(b1-4)GlcNAc(b1-2)Man(a1-3)Man(b1-4)GlcNAc(b1-4)GlcNAc
# In short: as §1
# [28] = target: Neu5Ac(a2-6)Gal(b1-4)GlcNAc(b1-2)Man(a1-3)[Gal(b1-4)GlcNAc(b1-2)Man(a1-6)]Man(b1-4)GlcNAc(b1-4)GlcNAc
# In short: as §1
# [29] = target: Neu5Ac(a2-6)Gal(b1-4)GlcNAc(b1-2)Man(a1-3)[GlcNAc(b1-4)][Neu5Ac(a2-6)Gal(b1-4)GlcNAc(b1-2)Man(a1-6)]Man(b1-4)GlcNAc(b1-4)GlcNAc
# In short: as §1
# [30] = target: Neu5Ac(a2-6)Gal(b1-4)GlcNAc(b1-2)Man(a1-3)[Man(a1-6)]Man(b1-4)GlcNAc(b1-4)GlcNAc
# In short: as §1
binder,measurement,setting,value
Mermaid2 (Stilbonema majum) (protein) MGSSHHHHHHSSGLVPRGSHMAASGWLRSPQGTVVKLYRRSLSWSKADEFCKDVDGRLVVDRTADMHLFLIKNVLKEKKSRVWVGLRRTAPHSRTWIWSDGTRQNEDDLNTNLWLRDEPNDAAGEEECALFMYSPWEKAWGLNDYLCRGGCRSYQFICEKGIR,glycan array binding signal (z-score),[1],-0.499
same,glycan array binding signal (z-score),[2],6.1
same,glycan array binding signal (z-score),[3],-0.392
same,glycan array binding signal (z-score),[4],0.221
same,glycan array binding signal (z-score),[5],-0.529
same,glycan array binding signal (z-score),[6],-0.209
same,glycan array binding signal (z-score),[7],-0.916
same,glycan array binding signal (z-score),[8],-0.296
same,glycan array binding signal (z-score),[9],-0.292
same,glycan array binding signal (z-score),[10],0.396
same,glycan array binding signal (z-score),[11],-0.893
same,glycan array binding signal (z-score),[12],0.3
same,glycan array binding signal (z-score),[13],-0.296
same,glycan array binding signal (z-score),[14],-0.701
same,glycan array binding signal (z-score),[15],-0.08
same,glycan array binding signal (z-score),[16],0.243
same,glycan array binding signal (z-score),[17],1.14
same,glycan array binding signal (z-score),[18],-0.812
same,glycan array binding signal (z-score),[19],0.008
same,glycan array binding signal (z-score),[20],-0.587
same,glycan array binding signal (z-score),[21],2.5
same,glycan array binding signal (z-score),[22],-0.718
same,glycan array binding signal (z-score),[23],-0.713
same,glycan array binding signal (z-score),[24],-0.397
same,glycan array binding signal (z-score),[25],-0.338
same,glycan array binding signal (z-score),[26],0.94
same,glycan array binding signal (z-score),[27],-0.055
same,glycan array binding signal (z-score),[28],0.023
same,glycan array binding signal (z-score),[29],-0.623
same,glycan array binding signal (z-score),[30],-0.03

# Reformatted as tab-separated lines: entries from further up
binder	measurement	setting	value
Mermaid2 (Stilbonema majum) (protein) MGSSHHHHHHSSGLVPRGSHMAASGWLRSPQGTVVKLYRRSLSWSKADEFCKDVDGRLVVDRTADMHLFLIKNVLKEKKSRVWVGLRRTAPHSRTWIWSDGTRQNEDDLNTNLWLRDEPNDAAGEEECALFMYSPWEKAWGLNDYLCRGGCRSYQFICEKGIR	glycan array binding signal (z-score)	[8]	-0.296
same	glycan array binding signal (z-score)	[13]	-0.296
